Results deposited as PubChem BioAssay AID1224830 (NIAID, 2016).
Purpose: 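Regulators of TLR4 signalling towards TNF-alpha in macrophage-like cells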 (primary screen). Cell system: human THP-1 monocytic leukaemia cells, TNF dual-luciferase reporter clone, PMA-differentiated to macrophage-like cells. Reagent: siRNA pool against human genes, 50 nM. Time to read-out: LPS for 4 h, given about 3 days after siRNA transfection. Treatment: bacterial LPS (TLR4 ligand), 10 ng/ml. Detection: 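Ratio of firefly to renilla light, scaled to the plate median and expressed as a robust z-score per replicate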. Direction: TNF reporter robust z-score: higher = stronger TNF reporter response to LPS. Active means: 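a well is active when its z-score exceeds 2.8 or falls below -1.5; control wells carry no call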.
The deposit covers about 18,000 reagents; this is a part drawn at random. Over the whole deposit, about 2,900 (16%) got an active call. 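Calls are made per well; low scores hint the gene aids the LPS response, high scores that it dampens it.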 Unmarked entries are inactive. Repeated entries: four replicate wells of each siRNA pool.

| target | TNF reporter robust z-score |
| --- | --- |
| DGKH (diacylglycerol kinase eta) | 1.3 |
| DGKH (diacylglycerol kinase eta) | -0.33 |
| DGKH (diacylglycerol kinase eta) | -0.35 |
| DGKH (diacylglycerol kinase eta) | 1.87 |
| CCNQ (cyclin Q) | 4.24 (active) |
| CCNQ (cyclin Q) | 3.89 (active) |
| CCNQ (cyclin Q) | 1.64 |
| CCNQ (cyclin Q) | 3.32 (active) |
| RGS7 (regulator of G protein signaling 7) | -1.02 |
| RGS7 (regulator of G protein signaling 7) | -0.15 |
| RGS7 (regulator of G protein signaling 7) | -0.73 |
| RGS7 (regulator of G protein signaling 7) | -0.71 |
| TYMSOS (TYMS opposite strand RNA) | -2.12 (active) |
| TYMSOS (TYMS opposite strand RNA) | -0.92 |
| TYMSOS (TYMS opposite strand RNA) | -1.7 (active) |
| TYMSOS (TYMS opposite strand RNA) | -1.4 |
| LSM11 (LSM11, U7 small nuclear RNA associated) | 0.74 |
| LSM11 (LSM11, U7 small nuclear RNA associated) | 0.68 |
| LSM11 (LSM11, U7 small nuclear RNA associated) | -0.3 |
| LSM11 (LSM11, U7 small nuclear RNA associated) | -1.23 |
| COL6A5 (collagen type VI alpha 5 chain) | -1 |
| COL6A5 (collagen type VI alpha 5 chain) | 0.26 |
| COL6A5 (collagen type VI alpha 5 chain) | -0.28 |
| COL6A5 (collagen type VI alpha 5 chain) | -0.57 |
| USP35 (ubiquitin specific peptidase 35) | 1.66 |
| USP35 (ubiquitin specific peptidase 35) | 2.05 |
| USP35 (ubiquitin specific peptidase 35) | 1.55 |
| USP35 (ubiquitin specific peptidase 35) | 2.57 |
| UBTD2 (ubiquitin domain containing 2) | -0.02 |
| UBTD2 (ubiquitin domain containing 2) | -0.24 |
| UBTD2 (ubiquitin domain containing 2) | 0.05 |
| UBTD2 (ubiquitin domain containing 2) | -1.09 |
| MEAK7 (MTOR associated protein MEAK7) | -0.76 |
| MEAK7 (MTOR associated protein MEAK7) | -0.83 |
| MEAK7 (MTOR associated protein MEAK7) | -0.69 |
| MEAK7 (MTOR associated protein MEAK7) | 0 |
| GNLY (granulysin) | -0.77 |
| GNLY (granulysin) | 0.44 |
| GNLY (granulysin) | 0.52 |
| GNLY (granulysin) | 0.05 |
| ZNF337 (zinc finger protein 337) | -0.18 |
| ZNF337 (zinc finger protein 337) | -0.03 |
| ZNF337 (zinc finger protein 337) | 0.01 |
| ZNF337 (zinc finger protein 337) | 0.03 |
| H4C13 (H4 clustered histone 13) | -0.01 |
| H4C13 (H4 clustered histone 13) | -0.64 |
| H4C13 (H4 clustered histone 13) | -0.2 |
| H4C13 (H4 clustered histone 13) | -1.01 |
| ZMYM4 (zinc finger MYM-type containing 4) | -0.86 |
| ZMYM4 (zinc finger MYM-type containing 4) | -0.16 |
| ZMYM4 (zinc finger MYM-type containing 4) | 1.34 |
| ZMYM4 (zinc finger MYM-type containing 4) | 1.17 |

A stretch taken from the entries so far, as a working copy:
| target | TNF reporter robust z-score |
| --- | --- |
| ZNF337 (zinc finger protein 337) | 0.03 |
| H4C13 (H4 clustered histone 13) | -0.01 |
| H4C13 (H4 clustered histone 13) | -0.64 |
| H4C13 (H4 clustered histone 13) | -0.2 |
| H4C13 (H4 clustered histone 13) | -1.01 |
| ZMYM4 (zinc finger MYM-type containing 4) | -0.86 |
| ZMYM4 (zinc finger MYM-type containing 4) | -0.16 |
| ZMYM4 (zinc finger MYM-type containing 4) | 1.34 |
| ZMYM4 (zinc finger MYM-type containing 4) | 1.17 |

Next entries follow:
| target | TNF reporter robust z-score |
| --- | --- |
| CEACAM8 (CEA cell adhesion molecule 8) | -0.74 |
| CEACAM8 (CEA cell adhesion molecule 8) | -0.53 |
| CEACAM8 (CEA cell adhesion molecule 8) | -0.75 |
| CEACAM8 (CEA cell adhesion molecule 8) | -0.08 |
| RBMY1E (RNA binding motif protein Y-linked family 1 member E) | 0.3 |
| RBMY1E (RNA binding motif protein Y-linked family 1 member E) | 0.78 |
| RBMY1E (RNA binding motif protein Y-linked family 1 member E) | 1.07 |
| RBMY1E (RNA binding motif protein Y-linked family 1 member E) | 0.41 |
| CFHR2 (complement factor H related 2) | -1.28 |
| CFHR2 (complement factor H related 2) | -0.87 |
| CFHR2 (complement factor H related 2) | -0.58 |
| CFHR2 (complement factor H related 2) | -0.48 |
| GDF7 (growth differentiation factor 7) | -0.22 |
| GDF7 (growth differentiation factor 7) | 0.22 |
| GDF7 (growth differentiation factor 7) | 0.8 |
| GDF7 (growth differentiation factor 7) | 0.82 |
| CCDC3 (coiled-coil domain containing 3) | -0.75 |
| CCDC3 (coiled-coil domain containing 3) | -0.31 |
| CCDC3 (coiled-coil domain containing 3) | -0.69 |
| CCDC3 (coiled-coil domain containing 3) | 0.21 |
| ERCC4 (ERCC excision repair 4, endonuclease catalytic subunit) | -0.7 |
| ERCC4 (ERCC excision repair 4, endonuclease catalytic subunit) | 0.6 |
| ERCC4 (ERCC excision repair 4, endonuclease catalytic subunit) | -0.18 |
| ERCC4 (ERCC excision repair 4, endonuclease catalytic subunit) | 0.18 |
| GEMIN6 (gem nuclear organelle associated protein 6) | -1.11 |
| GEMIN6 (gem nuclear organelle associated protein 6) | -0.73 |
| GEMIN6 (gem nuclear organelle associated protein 6) | -0.44 |
| GEMIN6 (gem nuclear organelle associated protein 6) | -0.12 |
| OR51E2 (olfactory receptor family 51 subfamily E member 2) | 0.58 |
| OR51E2 (olfactory receptor family 51 subfamily E member 2) | 0.47 |
| OR51E2 (olfactory receptor family 51 subfamily E member 2) | -0.19 |
| OR51E2 (olfactory receptor family 51 subfamily E member 2) | 0.35 |
| DTX3L (deltex E3 ubiquitin ligase 3L) | 0.42 |
| DTX3L (deltex E3 ubiquitin ligase 3L) | 2.98 (active) |
| DTX3L (deltex E3 ubiquitin ligase 3L) | -0.31 |
| DTX3L (deltex E3 ubiquitin ligase 3L) | 1.33 |
| NPY4R (neuropeptide Y receptor Y4) | 1.13 |
| NPY4R (neuropeptide Y receptor Y4) | 1.3 |
| NPY4R (neuropeptide Y receptor Y4) | 0.58 |
| NPY4R (neuropeptide Y receptor Y4) | 0.96 |
| TRIM16 (tripartite motif containing 16) | 1.65 |
| TRIM16 (tripartite motif containing 16) | 5.32 (active) |
| TRIM16 (tripartite motif containing 16) | 0.35 |
| TRIM16 (tripartite motif containing 16) | 1.83 |
| HMGB4 (high mobility group box 4) | -0.33 |
| HMGB4 (high mobility group box 4) | 0.94 |
| HMGB4 (high mobility group box 4) | 0.97 |
| HMGB4 (high mobility group box 4) | 1.19 |
| SPEM1 (spermatid maturation 1) | -0.26 |
| SPEM1 (spermatid maturation 1) | 0.07 |
| SPEM1 (spermatid maturation 1) | -0.07 |
| DYNC2I1 (dynein 2 intermediate chain 1) | 0.09 |
| DYNC2I1 (dynein 2 intermediate chain 1) | -0.04 |
| DYNC2I1 (dynein 2 intermediate chain 1) | 0.16 |
| DYNC2I1 (dynein 2 intermediate chain 1) | -0.73 |
| ALKAL2 (ALK and LTK ligand 2) | 0.46 |
| ALKAL2 (ALK and LTK ligand 2) | -0.42 |
| ALKAL2 (ALK and LTK ligand 2) | -0.38 |
| ALKAL2 (ALK and LTK ligand 2) | 0.57 |
